Some of the results follow.
What was measured:
Test in all cases: log2 fold change, soluble protein after heating vs DMSO (PISA); higher = thermal stabilisation; K562 cells, 10 uM, 30 min; active = over 0.2 and 3.5 SD of the protein, either way, in both replicates (recomputed)
[1] = compound: COC1=CC=C(C=C1)CN2C=CC3=C2C=C(C=C3)C(=O)NO
In short: (§1)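 Soluble protein was defined as the supernatant after 21,000xg for 90 min. It came from K562 cells at 2×10^6 cells/mL given 10 μM compound for 30 min, heated in aliquots for 3 min across 48°C-58°C, pooled, and extracted in PBS with 0.5% NP-40 at 4°C, and was quantified by TMTpro 16plex LC-MS/MS with equalised channel sums. Thermal stability against control samples, from duplicates, is reported as log2 fold change.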

Amino acid sequences for entries named in this document (tags omitted). A change or cut given only in a name is not applied to a line headed by its entry.
UniProt Q9NV31: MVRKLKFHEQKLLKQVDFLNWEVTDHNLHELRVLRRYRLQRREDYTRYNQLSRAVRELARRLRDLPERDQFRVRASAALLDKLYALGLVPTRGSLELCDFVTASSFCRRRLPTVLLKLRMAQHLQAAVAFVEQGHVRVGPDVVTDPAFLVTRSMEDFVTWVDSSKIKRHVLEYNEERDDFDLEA
UniProt Q70UQ0: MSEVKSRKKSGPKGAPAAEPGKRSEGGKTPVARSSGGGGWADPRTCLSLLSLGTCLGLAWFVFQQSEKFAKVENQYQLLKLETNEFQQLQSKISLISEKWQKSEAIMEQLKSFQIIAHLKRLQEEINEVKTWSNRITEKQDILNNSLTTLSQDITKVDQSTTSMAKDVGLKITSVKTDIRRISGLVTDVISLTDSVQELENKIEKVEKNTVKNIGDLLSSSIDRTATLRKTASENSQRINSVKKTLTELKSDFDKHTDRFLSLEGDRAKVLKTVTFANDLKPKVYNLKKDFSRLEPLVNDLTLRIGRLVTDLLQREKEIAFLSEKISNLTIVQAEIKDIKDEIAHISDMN
UniProt Q06033: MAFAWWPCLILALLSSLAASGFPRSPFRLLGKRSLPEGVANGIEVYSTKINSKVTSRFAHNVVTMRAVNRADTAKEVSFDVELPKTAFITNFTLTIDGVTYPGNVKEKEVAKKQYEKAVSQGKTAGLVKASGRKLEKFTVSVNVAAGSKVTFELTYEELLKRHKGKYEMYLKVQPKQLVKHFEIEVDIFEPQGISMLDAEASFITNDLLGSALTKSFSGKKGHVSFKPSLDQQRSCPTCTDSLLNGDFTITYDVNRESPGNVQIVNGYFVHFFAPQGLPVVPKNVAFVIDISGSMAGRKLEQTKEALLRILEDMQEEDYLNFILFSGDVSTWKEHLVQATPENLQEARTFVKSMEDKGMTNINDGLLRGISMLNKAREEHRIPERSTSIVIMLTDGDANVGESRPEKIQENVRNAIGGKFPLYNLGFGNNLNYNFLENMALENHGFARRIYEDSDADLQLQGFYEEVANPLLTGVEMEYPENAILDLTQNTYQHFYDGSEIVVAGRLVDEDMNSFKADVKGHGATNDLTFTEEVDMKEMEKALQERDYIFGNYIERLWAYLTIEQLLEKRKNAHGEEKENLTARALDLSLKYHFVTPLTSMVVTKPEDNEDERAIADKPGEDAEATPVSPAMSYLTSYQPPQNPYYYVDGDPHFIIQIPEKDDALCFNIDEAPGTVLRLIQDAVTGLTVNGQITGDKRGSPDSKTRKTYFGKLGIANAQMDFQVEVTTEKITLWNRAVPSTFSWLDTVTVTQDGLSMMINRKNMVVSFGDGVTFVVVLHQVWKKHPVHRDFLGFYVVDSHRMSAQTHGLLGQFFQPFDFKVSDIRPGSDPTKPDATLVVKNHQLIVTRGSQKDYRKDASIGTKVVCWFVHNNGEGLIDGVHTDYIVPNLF
UniProt Q68E01, whole entry, looked up: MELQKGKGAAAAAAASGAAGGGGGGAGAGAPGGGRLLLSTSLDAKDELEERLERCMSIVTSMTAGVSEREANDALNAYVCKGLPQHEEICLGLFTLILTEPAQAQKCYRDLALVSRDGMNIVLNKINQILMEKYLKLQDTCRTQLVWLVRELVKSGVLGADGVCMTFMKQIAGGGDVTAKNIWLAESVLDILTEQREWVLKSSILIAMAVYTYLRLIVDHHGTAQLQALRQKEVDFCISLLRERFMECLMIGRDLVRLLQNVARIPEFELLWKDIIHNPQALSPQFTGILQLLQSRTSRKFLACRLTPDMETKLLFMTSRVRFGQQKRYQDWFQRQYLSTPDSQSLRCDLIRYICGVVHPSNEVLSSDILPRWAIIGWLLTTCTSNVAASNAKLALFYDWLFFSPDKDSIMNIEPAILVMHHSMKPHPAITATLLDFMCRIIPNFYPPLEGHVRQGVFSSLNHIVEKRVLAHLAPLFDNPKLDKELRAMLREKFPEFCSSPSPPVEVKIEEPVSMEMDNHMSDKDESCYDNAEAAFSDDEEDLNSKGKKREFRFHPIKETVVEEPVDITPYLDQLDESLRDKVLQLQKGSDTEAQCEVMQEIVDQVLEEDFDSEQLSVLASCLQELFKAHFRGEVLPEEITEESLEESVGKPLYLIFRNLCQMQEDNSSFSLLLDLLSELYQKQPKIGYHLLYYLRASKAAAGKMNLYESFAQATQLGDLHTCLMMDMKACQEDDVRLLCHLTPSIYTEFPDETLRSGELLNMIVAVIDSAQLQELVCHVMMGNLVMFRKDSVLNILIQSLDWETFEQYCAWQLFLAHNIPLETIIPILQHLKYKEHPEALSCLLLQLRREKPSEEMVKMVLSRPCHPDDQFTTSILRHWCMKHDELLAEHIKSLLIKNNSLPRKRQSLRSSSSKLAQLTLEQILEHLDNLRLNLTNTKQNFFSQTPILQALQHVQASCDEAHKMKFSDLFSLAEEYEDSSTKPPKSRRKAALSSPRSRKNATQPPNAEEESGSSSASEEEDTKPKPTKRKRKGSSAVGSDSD
UniProt P11717, whole entry, looked up: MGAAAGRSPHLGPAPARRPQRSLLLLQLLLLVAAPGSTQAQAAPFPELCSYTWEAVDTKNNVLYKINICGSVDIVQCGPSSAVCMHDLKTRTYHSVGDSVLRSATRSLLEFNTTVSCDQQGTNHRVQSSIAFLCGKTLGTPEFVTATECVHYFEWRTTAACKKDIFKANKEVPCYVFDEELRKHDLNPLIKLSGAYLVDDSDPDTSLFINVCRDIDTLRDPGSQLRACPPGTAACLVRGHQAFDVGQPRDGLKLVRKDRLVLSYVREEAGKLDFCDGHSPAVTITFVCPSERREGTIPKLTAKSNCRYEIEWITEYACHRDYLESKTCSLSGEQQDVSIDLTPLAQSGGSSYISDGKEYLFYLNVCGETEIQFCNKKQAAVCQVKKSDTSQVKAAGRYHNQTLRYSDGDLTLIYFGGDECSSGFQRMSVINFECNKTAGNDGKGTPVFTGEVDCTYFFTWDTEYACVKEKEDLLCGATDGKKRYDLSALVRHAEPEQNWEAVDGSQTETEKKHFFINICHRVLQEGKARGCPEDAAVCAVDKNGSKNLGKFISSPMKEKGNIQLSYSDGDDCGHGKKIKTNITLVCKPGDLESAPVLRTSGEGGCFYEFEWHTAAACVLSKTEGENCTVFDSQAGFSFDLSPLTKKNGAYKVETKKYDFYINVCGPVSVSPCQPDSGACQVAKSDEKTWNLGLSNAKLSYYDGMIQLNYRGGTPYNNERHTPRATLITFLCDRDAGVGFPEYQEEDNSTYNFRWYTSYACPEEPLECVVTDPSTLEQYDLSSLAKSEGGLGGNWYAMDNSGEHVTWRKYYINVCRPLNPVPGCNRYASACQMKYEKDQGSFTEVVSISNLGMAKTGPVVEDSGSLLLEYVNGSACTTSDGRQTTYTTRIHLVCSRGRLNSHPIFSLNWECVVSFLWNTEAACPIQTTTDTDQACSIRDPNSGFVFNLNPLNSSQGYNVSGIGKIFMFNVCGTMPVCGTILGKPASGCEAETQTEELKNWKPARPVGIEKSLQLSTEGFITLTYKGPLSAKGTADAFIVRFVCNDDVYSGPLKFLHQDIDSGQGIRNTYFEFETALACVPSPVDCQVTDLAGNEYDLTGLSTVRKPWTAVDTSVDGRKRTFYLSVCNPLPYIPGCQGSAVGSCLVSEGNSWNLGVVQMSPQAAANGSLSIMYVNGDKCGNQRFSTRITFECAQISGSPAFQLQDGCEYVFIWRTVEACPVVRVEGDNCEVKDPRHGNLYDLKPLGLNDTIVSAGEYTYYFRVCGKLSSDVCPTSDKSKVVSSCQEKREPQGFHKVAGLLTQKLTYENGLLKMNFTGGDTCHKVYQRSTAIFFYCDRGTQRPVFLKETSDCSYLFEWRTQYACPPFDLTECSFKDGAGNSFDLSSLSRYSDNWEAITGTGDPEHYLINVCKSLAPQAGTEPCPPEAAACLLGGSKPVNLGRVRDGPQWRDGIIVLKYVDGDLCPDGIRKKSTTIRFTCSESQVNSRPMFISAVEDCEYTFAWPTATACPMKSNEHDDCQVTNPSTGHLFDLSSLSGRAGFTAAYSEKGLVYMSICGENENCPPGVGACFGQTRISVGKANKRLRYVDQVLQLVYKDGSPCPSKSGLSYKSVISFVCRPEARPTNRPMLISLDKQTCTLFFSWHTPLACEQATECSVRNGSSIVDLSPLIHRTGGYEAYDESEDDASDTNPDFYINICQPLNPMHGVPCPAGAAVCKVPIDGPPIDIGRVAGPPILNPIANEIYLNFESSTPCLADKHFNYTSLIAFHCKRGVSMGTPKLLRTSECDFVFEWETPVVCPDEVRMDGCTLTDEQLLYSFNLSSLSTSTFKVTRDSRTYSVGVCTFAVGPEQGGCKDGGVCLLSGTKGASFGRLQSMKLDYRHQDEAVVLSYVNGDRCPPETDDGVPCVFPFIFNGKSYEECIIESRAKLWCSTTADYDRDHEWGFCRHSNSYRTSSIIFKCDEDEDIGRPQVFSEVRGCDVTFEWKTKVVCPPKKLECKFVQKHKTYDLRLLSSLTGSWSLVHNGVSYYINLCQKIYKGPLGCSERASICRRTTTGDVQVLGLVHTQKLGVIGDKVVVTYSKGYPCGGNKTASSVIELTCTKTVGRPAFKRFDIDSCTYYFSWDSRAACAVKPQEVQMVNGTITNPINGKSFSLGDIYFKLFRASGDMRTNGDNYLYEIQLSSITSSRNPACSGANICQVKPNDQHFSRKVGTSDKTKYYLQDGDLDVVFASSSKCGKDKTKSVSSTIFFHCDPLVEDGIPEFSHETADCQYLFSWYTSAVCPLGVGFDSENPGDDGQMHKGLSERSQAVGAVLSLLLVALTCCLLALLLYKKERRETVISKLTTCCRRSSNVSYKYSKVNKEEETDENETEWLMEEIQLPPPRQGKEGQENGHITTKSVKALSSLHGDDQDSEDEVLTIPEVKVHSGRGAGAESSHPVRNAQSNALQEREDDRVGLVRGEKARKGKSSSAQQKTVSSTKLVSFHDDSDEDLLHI
UniProt Q8IWB1: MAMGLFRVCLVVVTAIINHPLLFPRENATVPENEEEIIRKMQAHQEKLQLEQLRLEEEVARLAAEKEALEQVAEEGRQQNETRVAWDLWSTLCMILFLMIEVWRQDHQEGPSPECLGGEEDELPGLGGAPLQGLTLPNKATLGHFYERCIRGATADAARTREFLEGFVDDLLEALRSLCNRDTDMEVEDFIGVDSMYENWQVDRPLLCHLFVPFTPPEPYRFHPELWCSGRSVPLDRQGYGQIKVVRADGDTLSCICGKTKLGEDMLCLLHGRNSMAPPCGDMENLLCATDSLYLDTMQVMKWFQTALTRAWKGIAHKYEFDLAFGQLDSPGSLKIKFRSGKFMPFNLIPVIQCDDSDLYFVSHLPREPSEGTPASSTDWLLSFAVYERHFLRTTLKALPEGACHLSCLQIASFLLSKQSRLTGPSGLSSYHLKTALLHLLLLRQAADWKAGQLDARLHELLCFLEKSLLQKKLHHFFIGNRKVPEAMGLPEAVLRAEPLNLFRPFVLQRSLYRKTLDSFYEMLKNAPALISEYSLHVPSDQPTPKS

filanesib = compound: CON(C)C(=O)N1N=C(c2cc(F)ccc2F)S[C@@]1(CCCN)c1ccccc1 [filanesib]
In short: as §1

zotarolimus = compound: CO[C@H]1C[C@@H]2CC[C@@H](C)[C@@](O)(O2)C(=O)C(=O)N2CCCC[C@H]2C(=O)O[C@H]([C@H](C)C[C@@H]2CC[C@H](n3cnnn3)[C@H](OC)C2)CC(=O)[C@H](C)/C=C(\C)[C@@H](O)[C@@H](OC)C(=O)[C@H](C)C[C@H](C)/C=C/C=C/C=C/1C [zotarolimus]
In short: as §1

idasanutlin = compound: COc1cc(C(=O)O)ccc1NC(=O)[C@@H]1N[C@@H](CC(C)(C)C)[C@](C#N)(c2ccc(Cl)cc2F)[C@H]1c1cccc(Cl)c1F [idasanutlin]
In short: as §1

alisertib = compound: COc1cc(Nc2ncc3c(n2)-c2ccc(Cl)cc2C(c2c(F)cccc2OC)=NC3)ccc1C(=O)O [alisertib]
In short: as §1

[2] = compound: COc1cc2nc(-c3cc(F)ccc3O)nc(N[C@@H]3CNC[C@H]3C(C)(C)O)c2cc1OC
In short: as §1

gefitinib = compound: COc1cc2ncnc(Nc3ccc(F)c(Cl)c3)c2cc1OCCCN1CCOCC1 [gefitinib]
In short: as §1

[3] = compound: COc1cccc2cc(-c3nc([C@H]4CC[C@H](C(=O)O)CC4)n4ncnc(N)c34)[nH]c12
In short: as §1

lapatinib = compound: CS(=O)(=O)CCNCc1ccc(-c2ccc3ncnc(Nc4ccc(OCc5cccc(F)c5)c(Cl)c4)c3c2)o1 [lapatinib]
In short: as §1

pictilisib = compound: CS(=O)(=O)N1CCN(Cc2cc3nc(-c4cccc5[nH]ncc45)nc(N4CCOCC4)c3s2)CC1 [pictilisib]
In short: as §1

[4] = compound: CS(=O)(=O)c1ccc(-c2cnc(N)c(C(=O)Nc3ccccc3)n2)cc1
In short: as §1

crizotinib = compound: C[C@@H](Oc1cc(-c2cnn(C3CCNCC3)c2)cnc1N)c1c(Cl)ccc(F)c1Cl [crizotinib]
In short: as §1

[5] = compound: C[C@@H]1COCCN1C2=NC(=NC(=C2)C3(CC3)S(=O)(=O)C)C4=C5C=CNC5=CC=C4
In short: as §1

[6] = compound: C[C@H](C1=CC=C(C=C1)C(=O)NC2=C3C=CNC3=NC=C2)N
In short: as §1

duvelisib = compound: C[C@H](Nc1ncnc2nc[nH]c12)c1cc2cccc(Cl)c2c(=O)n1-c1ccccc1 [duvelisib]
In short: as §1

gandotinib = compound: Cc1cc(Nc2cc(CN3CCOCC3)c3nc(C)c(Cc4ccc(Cl)cc4F)n3n2)n[nH]1 [gandotinib]
In short: as §1

tozasertib = compound: Cc1cc(Nc2cc(N3CCN(C)CC3)nc(Sc3ccc(NC(=O)C4CC4)cc3)n2)n[nH]1 [tozasertib]
In short: as §1

[7] = compound: Cc1cc(SCc2sc(-c3ccc(C(F)(F)F)cc3)nc2C)ccc1OCC(=O)O
In short: as §1

doramapimod = compound: Cc1ccc(-n2nc(C(C)(C)C)cc2NC(=O)Nc2ccc(OCCN3CCOCC3)c3ccccc23)cc1 [doramapimod]
In short: as §1

ispinesib = compound: Cc1ccc(C(=O)N(CCCN)[C@@H](c2nc3cc(Cl)ccc3c(=O)n2Cc2ccccc2)C(C)C)cc1 [ispinesib]
In short: as §1

Measured: log2 fold change

IFI35 isoform 2 (UniProt P80217)
inactive: [1] 0.008 | filanesib -0.115 | zotarolimus 0.018 | idasanutlin -0.027 | alisertib -0.08 | [2] -0.001 | gefitinib 0.036 | [3] 0.022 | lapatinib -0.019 | pictilisib 0.021 | [4] 0.016 | crizotinib 0.03 | [5] 0.077 | [6] -0.084 | duvelisib 0.038 | gandotinib 0.11 | tozasertib 0.017 | [7] 0.006 | doramapimod -0.049 | ispinesib 0.027

IMP3 (UniProt Q9NV31)
inactive: [1] -0.204 | filanesib -0.132 | zotarolimus 0.022 | idasanutlin -0.04 | alisertib -0.131 | [2] 0.159 | gefitinib 0.093 | [3] 0.032 | lapatinib -0.131 | pictilisib 0.257 | [4] 0.139 | crizotinib 0.217 | [5] 0.012 | [6] 0.019 | duvelisib 0.246 | gandotinib 0.238 | tozasertib -0.288 | [7] -0.135 | doramapimod 0.008 | ispinesib -0.028

ILF3 isoform 7 (UniProt Q12906)
inactive: [1] 0.022 | filanesib 0.213 | zotarolimus -0.047 | idasanutlin 0.095 | alisertib -0.061 | [2] 0.174 | gefitinib -0.022 | [3] -0.06 | lapatinib 0 | pictilisib 0.018 | [4] -0.159 | crizotinib -0.074 | [5] -0.181 | [6] 0.286 | gandotinib 0.1 | [7] -0.001 | doramapimod 0.118 | ispinesib 0.034

ITCH (UniProt Q96J02)
inactive: [1] -0.015 | filanesib 0.09 | zotarolimus -0.001 | idasanutlin -0.111 | alisertib -0.006 | [2] 0.049 | gefitinib 0.015 | [3] -0.021 | lapatinib 0.059 | pictilisib -0.049 | [4] 0.023 | crizotinib -0.154 | [5] 0.025 | [6] 0.046 | duvelisib 0.016 | gandotinib -0.131 | tozasertib -0.023 | [7] -0.021 | doramapimod 0.045 | ispinesib -0.092

IKBIP (UniProt Q70UQ0)
inactive: [1] -0.057 | filanesib 0.003 | zotarolimus -0.031 | idasanutlin -0.022 | alisertib -0.093 | [2] -0.001 | gefitinib 0.013 | [3] -0.017 | lapatinib 0.023 | pictilisib 0.017 | [4] -0.024 | crizotinib 0.089 | [5] 0.015 | [6] 0.064 | duvelisib 0.036 | gandotinib -0.012 | tozasertib -0.022 | [7] -0.008 | doramapimod 0.04 | ispinesib 0.028

INPPL1 (UniProt O15357)
inactive: [1] -0.029 | filanesib 0.091 | zotarolimus 0.072 | idasanutlin -0.02 | alisertib 0.643 | [2] 0.052 | gefitinib 0.039 | [3] -0.151 | lapatinib -0.022 | pictilisib -0.191 | [4] -0.007 | crizotinib -0.299 | [5] 0.015 | [6] 0.095 | duvelisib 0.01 | gandotinib 0.026 | tozasertib -0.034 | [7] 0.059 | doramapimod 0.119 | ispinesib -0.131

IGFBP2 (UniProt P18065)
inactive: [1] 0.117 | filanesib -0.238 | idasanutlin 0.439 | alisertib 0.11 | [2] -0.056 | gefitinib -0.228 | [3] 0.363 | lapatinib -0.025 | pictilisib -0.252 | [4] -0.205 | crizotinib -0.297 | [5] -0.051 | [6] -0.189 | gandotinib -0.475 | [7] 0.026 | doramapimod -0.305 | ispinesib -0.482
active: zotarolimus -0.846

ITIH3 (UniProt Q06033)
inactive: [1] -0.013 | filanesib 0.116 | zotarolimus -0.188 | idasanutlin 0.074 | alisertib 0.003 | [2] -0.168 | gefitinib -0.043 | [3] 0.279 | lapatinib -0.068 | pictilisib -0.177 | [4] -0.113 | crizotinib 0.398 | [5] 0.098 | [6] 0.175 | duvelisib -0.073 | gandotinib -0.024 | tozasertib -0.067 | [7] -0.161 | doramapimod 0.195 | ispinesib -0.014

IRF2BP2 (UniProt Q7Z5L9)
inactive: [1] 0.187 | filanesib -0.011 | zotarolimus -0.07 | idasanutlin 0.01 | alisertib -0.071 | [2] 0.052 | gefitinib 0.011 | [3] -0.005 | lapatinib -0.031 | pictilisib -0.014 | [4] 0 | crizotinib -0.076 | [5] -0.022 | [6] 0.019 | duvelisib 0.03 | gandotinib -0.06 | tozasertib -0.016 | [7] -0.002 | doramapimod 0.021 | ispinesib 0.041

Four consecutive entries out of the list so far, for reference:
ILF3 isoform 7 (UniProt Q12906)
inactive: [1] 0.022 | filanesib 0.213 | zotarolimus -0.047 | idasanutlin 0.095 | alisertib -0.061 | [2] 0.174 | gefitinib -0.022 | [3] -0.06 | lapatinib 0 | pictilisib 0.018 | [4] -0.159 | crizotinib -0.074 | [5] -0.181 | [6] 0.286 | gandotinib 0.1 | [7] -0.001 | doramapimod 0.118 | ispinesib 0.034

ITCH (UniProt Q96J02)
inactive: [1] -0.015 | filanesib 0.09 | zotarolimus -0.001 | idasanutlin -0.111 | alisertib -0.006 | [2] 0.049 | gefitinib 0.015 | [3] -0.021 | lapatinib 0.059 | pictilisib -0.049 | [4] 0.023 | crizotinib -0.154 | [5] 0.025 | [6] 0.046 | duvelisib 0.016 | gandotinib -0.131 | tozasertib -0.023 | [7] -0.021 | doramapimod 0.045 | ispinesib -0.092

IKBIP (UniProt Q70UQ0)
inactive: [1] -0.057 | filanesib 0.003 | zotarolimus -0.031 | idasanutlin -0.022 | alisertib -0.093 | [2] -0.001 | gefitinib 0.013 | [3] -0.017 | lapatinib 0.023 | pictilisib 0.017 | [4] -0.024 | crizotinib 0.089 | [5] 0.015 | [6] 0.064 | duvelisib 0.036 | gandotinib -0.012 | tozasertib -0.022 | [7] -0.008 | doramapimod 0.04 | ispinesib 0.028

INPPL1 (UniProt O15357)
inactive: [1] -0.029 | filanesib 0.091 | zotarolimus 0.072 | idasanutlin -0.02 | alisertib 0.643 | [2] 0.052 | gefitinib 0.039 | [3] -0.151 | lapatinib -0.022 | pictilisib -0.191 | [4] -0.007 | crizotinib -0.299 | [5] 0.015 | [6] 0.095 | duvelisib 0.01 | gandotinib 0.026 | tozasertib -0.034 | [7] 0.059 | doramapimod 0.119 | ispinesib -0.131

Next part

INTS13 (UniProt Q9NVM9)
inactive: [1] 0.037 | filanesib -0.088 | zotarolimus -0.013 | idasanutlin -0.078 | alisertib 0.032 | [2] 0.035 | gefitinib 0.068 | [3] -0.019 | lapatinib -0.021 | pictilisib -0.05 | [4] 0.025 | crizotinib -0.063 | [5] 0.115 | [6] -0.013 | duvelisib 0.081 | gandotinib -0.015 | tozasertib -0.027 | [7] 0.102 | doramapimod -0.002 | ispinesib -0.035

IPO9 (UniProt Q96P70)
inactive: [1] 0.014 | filanesib -0.005 | zotarolimus 0.052 | idasanutlin -0.089 | alisertib -0.016 | [2] -0.054 | gefitinib 0.088 | [3] 0.065 | lapatinib 0.011 | pictilisib 0.031 | [4] -0.04 | crizotinib -0.031 | [5] 0.051 | [6] -0.042 | gandotinib -0.146 | [7] 0.041 | doramapimod 0.008 | ispinesib 0.062

IGF2BP1 (UniProt Q9NZI8)
inactive: [1] -0.051 | filanesib 0.292 | zotarolimus 0.012 | idasanutlin 0.331 | alisertib 0.071 | [2] -0.339 | gefitinib -0.016 | [3] -0.141 | lapatinib 0.106 | pictilisib -0.111 | [4] -0.085 | crizotinib -0.054 | [5] -0.471 | [6] 0.388 | duvelisib -0.142 | gandotinib 0.256 | tozasertib 0.118 | [7] 0.103 | doramapimod 0.138 | ispinesib -0.371

INTS3 (UniProt Q68E01)
inactive: [1] 0.039 | filanesib 0.032 | zotarolimus 0.047 | idasanutlin -0.05 | alisertib -0.023 | [2] 0.033 | gefitinib 0.115 | [3] 0.148 | lapatinib -0.003 | pictilisib 0.019 | [4] -0.004 | crizotinib -0.036 | [5] -0.115 | [6] -0.039 | duvelisib 0.067 | gandotinib -0.136 | tozasertib -0.027 | [7] 0.035 | doramapimod 0.004 | ispinesib -0.016

IKBKG isoform 2 (UniProt Q9Y6K9)
inactive: [1] -0.019 | filanesib 0.01 | zotarolimus 0.02 | idasanutlin -0.01 | alisertib -0.089 | [2] -0.025 | gefitinib -0.011 | [3] -0.016 | lapatinib 0.032 | pictilisib 0.034 | [4] 0.049 | crizotinib 0.032 | [5] 0.06 | [6] -0.05 | duvelisib 0.007 | gandotinib 0.037 | tozasertib 0.006 | [7] -0.052 | doramapimod 0.016 | ispinesib 0.077

IGF2R (UniProt P11717)
active: crizotinib -0.871
inactive: [1] 0.041 | filanesib 0.007 | zotarolimus -0.014 | idasanutlin -0.012 | alisertib -0.058 | [2] -0.065 | gefitinib -0.003 | [3] 0 | lapatinib 0.015 | pictilisib 0.002 | [4] 0.031 | [5] -0.035 | [6] -0.035 | gandotinib 0.017 | [7] 0.019 | doramapimod -0.01 | ispinesib -0.115

ITPRIP (UniProt Q8IWB1)
inactive: [1] -0.042 | filanesib -0.022 | zotarolimus -0.024 | idasanutlin 0.014 | alisertib 0.012 | [2] -0.021 | gefitinib 0.018 | [3] -0.043 | lapatinib -0.038 | pictilisib 0.049 | [4] -0.002 | crizotinib 0.056 | [5] 0.012 | [6] -0.039 | gandotinib -0.049 | [7] 0.038 | doramapimod 0.062 | ispinesib -0.037

— the supplement of paper PMC10849652
